For 54 sequences, binding signal results are on record in publication PMC7819943, “Rice protein-binding microarrays: a tool to detect cis-acting elements near promoter regions in rice”.

Amino acid sequences for entries named in this document (tags omitted).
UniProt Q0JBA9, entry or part of it: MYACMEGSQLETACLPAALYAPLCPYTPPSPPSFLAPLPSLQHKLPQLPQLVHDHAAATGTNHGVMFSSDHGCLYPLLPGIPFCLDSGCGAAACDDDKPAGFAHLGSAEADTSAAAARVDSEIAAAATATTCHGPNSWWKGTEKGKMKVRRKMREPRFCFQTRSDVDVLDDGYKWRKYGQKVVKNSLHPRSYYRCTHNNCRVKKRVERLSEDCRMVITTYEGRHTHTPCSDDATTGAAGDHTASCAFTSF

The list shows a part of the results.

The experiment has as its target OsWRKY34 (Oryza sativa, UniProt Q0JBA9 1-250). The experiment is described as follows: protein-binding microarray (RPBM); PBS, 2% BSA, 51.3 ng/ul salmon testes DNA, 50 uM zinc acetate, 200 nM TF, 25 C, 1 h; high values mean tight binding. The following applies: protein: recombinant; tags: N-terminal polyhistidine and DsRed monomer fusion (pET32a); label: CyDye5-dUTP incorporated in the synthesized complementary strand; 3' TTTTT single-stranded linker to array surface; dsDNA, one strand shown. The method in brief:
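An Axon 4000B scanner gave the binding signal as per-feature fluorescence intensity in arbitrary units. This followed washing of a custom Agilent array that had been incubated for 1 h at 25 °C with 200 nM protein in PBS, 2% BSA, salmon testes DNA and 50 µM zinc acetate. The proteins were transcription factors fused at the N-terminus to polyhistidine and DsRed, expressed in E. coli BL21-CodonPlus and purified on Ni–NTA.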
In the case of “TACTAATTTCCTTCGCACATCCAGCAATCAGATATCCTGACGGAGTCACCTAGTGCAG”, the binding signal is 9760 fluorescence intensity (a.u.). “CGTCACTTTTTTTTCTCCCCTATTTCTTTTCTCCTTTTCTCGGAGTCACCTAGTGCAG”: the binding signal was 10900 fluorescence intensity (a.u.). For “CCGCACCGTATCCTGCCCAATCTCGTTCACCCCTTCACGACGGAGTCACCTAGTGCAG” the value was 11300 fluorescence intensity (a.u.). On to “TGTGAGGTGGGGTCGGGGTGGAAGTGGGTGAGGAGGGGTGCGGAGTCACCTAGTGCAG”, for which the binding signal was 21700 fluorescence intensity (a.u.).

As to “TTACTTCAGGTTGGGTTTGCTGCTGTCGATGTGCTTATCTCGGAGTCACCTAGTGCAG”, the binding signal is 12500 fluorescence intensity (a.u.). For “CAGCTCAATATTTTTGTACTTCATTTATTCTGCTTTAAACCGGAGTCACCTAGTGCAG” the value was 9540 fluorescence intensity (a.u.); for “TACCTCTTGATGCTTATCTGGTTTGTTTTTTTTCCTTTTCCGGAGTCACCTAGTGCAG”, 8140 fluorescence intensity (a.u.). For “TTGAACCCTGCTCTCAGCTGAGCACCATGCAATAACTGTCCGGAGTCACCTAGTGCAG” the value was 8270 fluorescence intensity (a.u.); for “GGGGCTGTTTGGTTTCCAGGGACTTATTCCAAGTCCCTGTCGGAGTCACCTAGTGCAG”, 9750 fluorescence intensity (a.u.); for “CTACTCTACTGACTTGCACATGTACTGTACGTTCTCTTTGCGGAGTCACCTAGTGCAG”, 9050 fluorescence intensity (a.u.). As for “GCACGCTGTTGCAGTGCTCTGCGCCTCTGCATCTCCTTCTCGGAGTCACCTAGTGCAG”, the binding signal was 8230 fluorescence intensity (a.u.). As for “CTCTGTTCACCAGTCCGTCGGTTCGATCGGCGATCAAACTCGGAGTCACCTAGTGCAG”, the binding signal was 8510 fluorescence intensity (a.u.). For “TGACTTATATGATTATGTTTTATGTTGAATTATTGACCGTCGGAGTCACCTAGTGCAG” the value was 8200 fluorescence intensity (a.u.); for “ATTCTCTGTTTTACACTTATATTCCTGTCAGAATTCTATACGGAGTCACCTAGTGCAG”, 10200 fluorescence intensity (a.u.); for “TCTTCTTATAAACCCTAACTCCAGTAACATTTTAAGCTTTCGGAGTCACCTAGTGCAG”, 8840 fluorescence intensity (a.u.). As to “CCATGCTCGCGGCGTTTACTTTCCTCACTATTTTTTAGATCGGAGTCACCTAGTGCAG”, the binding signal is 9410 fluorescence intensity (a.u.). Under “CCGCCCCGGACCCGTCGCCAAACCCTGCCGCCGAGCACTCCGGAGTCACCTAGTGCAG” stands 9020 fluorescence intensity (a.u.); under “CCAACCCACTCCCGTCATCGCCACCTCATCCACAGCCATGCGGAGTCACCTAGTGCAG”, 8840 fluorescence intensity (a.u.). Under “CCCCTGCCTGCCTGCCGTCCCACACGGGCACGCCGCGGCGCGGAGTCACCTAGTGCAG” stands 11900 fluorescence intensity (a.u.); under “GGTGGGATCCTCTGCGGCCTCGTATTTCTATCTGCTTAACCGGAGTCACCTAGTGCAG”, 8710 fluorescence intensity (a.u.).

In the case of “TTCACCTTGCTCCTCTCTCTCTCTCTCTCTCCTTAATTCTCGGAGTCACCTAGTGCAG”, the binding signal is 8090 fluorescence intensity (a.u.).

In the case of “GCCATCGCGTACTACACTACACTACACAGTTTGTACCGCGCGGAGTCACCTAGTGCAG”, the binding signal is 9140 fluorescence intensity (a.u.). For the sequence “GCACGCGCCACACCGGTCCCAAACCTTCCCAACGCGCGCGCGGAGTCACCTAGTGCAG”, the binding signal is 8770 fluorescence intensity (a.u.). Under “GCCACGCCTCCTATATCCACGCTGCCCAGCGGCGCCCACCCGGAGTCACCTAGTGCAG” stands 8250 fluorescence intensity (a.u.); under “CGATGTGATTTAGTGAAAAATTTTAGGGTGGGCTAAACAGCGGAGTCACCTAGTGCAG”, 11500 fluorescence intensity (a.u.); under “ACTCTTCTACTGCTCCACTCTGCTCTGCTCGCCGCTCCCACGGAGTCACCTAGTGCAG”, 15100 fluorescence intensity (a.u.). For the sequence “GAGAGGGGATAAGGTATTCGTTTTGTTTGTATGCATGTGACGGAGTCACCTAGTGCAG”, the binding signal was 14300 fluorescence intensity (a.u.). For “ACCATGACCGCATCCCTCTACTAAAGTTTAATTGTACTCTCGGAGTCACCTAGTGCAG” the value was 8540 fluorescence intensity (a.u.). Regarding “GCGTCACCATCATGCCCAAGGACATCCAGCTCGCCCGCCGCGGAGTCACCTAGTGCAG”, the binding signal is 9100 fluorescence intensity (a.u.).

Consider “CTTACCATTGTGTTTTGCTCTCATGATCGTATTTGTTCACCGGAGTCACCTAGTGCAG”, for which the binding signal was 11300 fluorescence intensity (a.u.).

Turning to “ATGTGTGTGTGCTATTTCTCTACGCTTTGCAGGCAACTAGCGGAGTCACCTAGTGCAG”, the binding signal is 8330 fluorescence intensity (a.u.). Take “ATGTTGGGCCAGGCTCGAGCTCCTCCTCCTCCGCGTCGTCCGGAGTCACCTAGTGCAG”: the binding signal was 8140 fluorescence intensity (a.u.). For “GAGTATATGACAGTTGCCGTGTGCTCTTTGATTCGTTTGACGGAGTCACCTAGTGCAG” the value was 9970 fluorescence intensity (a.u.).

On to “TTGGTCGATCCTTCTTGTTTAATCTGCCTGTGCCTTGATCCGGAGTCACCTAGTGCAG”, for which the binding signal was 8280 fluorescence intensity (a.u.).

“GCCATCAACTATAGGGAACATGTCTTCCCTCAACTATATACGGAGTCACCTAGTGCAG”: the binding signal is 8360 fluorescence intensity (a.u.).

Consider “TGTAAGCTTATGTGTCATCTTTCTTTGTTTGTGAAGAACCCGGAGTCACCTAGTGCAG”, for which the binding signal was 8190 fluorescence intensity (a.u.). Regarding “CTTCGCCGATCTATCTCCGTCCATCCTCCGCTCGCCGTCGCGGAGTCACCTAGTGCAG”, the binding signal was 8080 fluorescence intensity (a.u.). With “CTTACTCTCCCATTGACTTTCAATCCCAATGTAACCAGCTCGGAGTCACCTAGTGCAG”, the binding signal was 9380 fluorescence intensity (a.u.).

Consider “CTCGCATCCATCGCTTCCCATTGCAGGTAATGCATCTCTCCGGAGTCACCTAGTGCAG”, for which the binding signal is 8780 fluorescence intensity (a.u.).

On to “TTACAATAGCGACACCGTTTTTAAAACACAACTTTGACTTCGGAGTCACCTAGTGCAG”, for which the binding signal is 8540 fluorescence intensity (a.u.). For “ATGATTTGTTTGATAATGCCCTCTGTTATTAAGGATGATTCGGAGTCACCTAGTGCAG” the value was 8090 fluorescence intensity (a.u.); for “CCGCTGTGGAGTTTTTTACCATTCGTAATTTCTCGTATTTCGGAGTCACCTAGTGCAG”, 9160 fluorescence intensity (a.u.).

Turning to “CCGCAGCATGTTTATCCTCTACCTATTCCATTTGTAGGTGCGGAGTCACCTAGTGCAG”, the binding signal was 8200 fluorescence intensity (a.u.). Under “GGACTTCTTTTTTGTTTTTTTACTGATGAAACTTTTTTTTCGGAGTCACCTAGTGCAG” stands 12300 fluorescence intensity (a.u.). Turning to “GGTTTGTTTGTCGTTCATGTGACGAGCGCATCCGTTTTCCCGGAGTCACCTAGTGCAG”, the binding signal was 9140 fluorescence intensity (a.u.). Under “ACAACTACGCGTCGTTTTCTTTATTATTTATTCGTGTATACGGAGTCACCTAGTGCAG” stands 8420 fluorescence intensity (a.u.); under “GATCATTACTATATTTTCCCTGTATTTATAATTCTATGTTCGGAGTCACCTAGTGCAG”, 8910 fluorescence intensity (a.u.).

“GTATAAAAATCCTTGTCTCCATCTCTTTTACCTTAATCTCCGGAGTCACCTAGTGCAG”: the binding signal was 8520 fluorescence intensity (a.u.). Under “TAGATGATGCTGTTAACTTTTTCTCACATGTTTGACCATTCGGAGTCACCTAGTGCAG” stands 12700 fluorescence intensity (a.u.); under “GAGTCCTTATTCCCAAACCTGTACTTTCCTAGGCCAATGACGGAGTCACCTAGTGCAG”, 8580 fluorescence intensity (a.u.); under “CCGCCCAGCCATATGCAGTTGTTCGTACCCGTAATTAACCCGGAGTCACCTAGTGCAG”, 8930 fluorescence intensity (a.u.). Under “TACCCAACACGCATCCTGGTCGATTCCTCCGAGCAAAAATCGGAGTCACCTAGTGCAG” stands 8540 fluorescence intensity (a.u.); under “TCATAATGCATCAATCTATTACTTTAGCTATCTATTTATACGGAGTCACCTAGTGCAG”, 9530 fluorescence intensity (a.u.).

For the sequence “AAATTTGTTATTTTTGTTTCGAATTATATAATTCGAATTTCGGAGTCACCTAGTGCAG”, the binding signal was 9450 fluorescence intensity (a.u.).
